Reference: publication doi:10.1101/2023.04.13.536796
Like-named read-outs stand apart in the source and are kept apart here. No constants are given. Whether binding was seen depends on the method and setting. Binding seen in cells or lysates may run through a third protein. Some binding calls cover weakened binding; strength is not graded here.

Protein sequences, listed by entry. Tags and fused reporters are not part of them. Lines headed by an entry give the natural chain unless they say otherwise; changes in a name come on top. Chains listed by the source or under a name are the forms on record and can include a tag or linker. Residues count along the entry.
UniProt Q86TM6: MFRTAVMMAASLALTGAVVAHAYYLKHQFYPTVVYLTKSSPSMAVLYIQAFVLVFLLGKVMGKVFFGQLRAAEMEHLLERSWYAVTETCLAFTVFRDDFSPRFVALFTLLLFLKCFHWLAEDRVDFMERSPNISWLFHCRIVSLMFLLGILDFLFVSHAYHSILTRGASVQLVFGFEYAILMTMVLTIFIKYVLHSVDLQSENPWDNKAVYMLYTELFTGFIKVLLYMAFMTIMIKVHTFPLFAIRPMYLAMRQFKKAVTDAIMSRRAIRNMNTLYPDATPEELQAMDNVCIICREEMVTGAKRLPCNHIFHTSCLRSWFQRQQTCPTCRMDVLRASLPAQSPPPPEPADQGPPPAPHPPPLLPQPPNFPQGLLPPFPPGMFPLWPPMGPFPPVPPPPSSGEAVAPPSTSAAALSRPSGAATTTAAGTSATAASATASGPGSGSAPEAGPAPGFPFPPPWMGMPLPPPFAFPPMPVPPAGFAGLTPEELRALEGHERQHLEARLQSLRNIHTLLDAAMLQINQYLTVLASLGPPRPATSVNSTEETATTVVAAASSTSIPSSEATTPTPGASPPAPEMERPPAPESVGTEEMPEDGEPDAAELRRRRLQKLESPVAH
SEL1L-FLAG WT (Q9UBV2, residues 22-794): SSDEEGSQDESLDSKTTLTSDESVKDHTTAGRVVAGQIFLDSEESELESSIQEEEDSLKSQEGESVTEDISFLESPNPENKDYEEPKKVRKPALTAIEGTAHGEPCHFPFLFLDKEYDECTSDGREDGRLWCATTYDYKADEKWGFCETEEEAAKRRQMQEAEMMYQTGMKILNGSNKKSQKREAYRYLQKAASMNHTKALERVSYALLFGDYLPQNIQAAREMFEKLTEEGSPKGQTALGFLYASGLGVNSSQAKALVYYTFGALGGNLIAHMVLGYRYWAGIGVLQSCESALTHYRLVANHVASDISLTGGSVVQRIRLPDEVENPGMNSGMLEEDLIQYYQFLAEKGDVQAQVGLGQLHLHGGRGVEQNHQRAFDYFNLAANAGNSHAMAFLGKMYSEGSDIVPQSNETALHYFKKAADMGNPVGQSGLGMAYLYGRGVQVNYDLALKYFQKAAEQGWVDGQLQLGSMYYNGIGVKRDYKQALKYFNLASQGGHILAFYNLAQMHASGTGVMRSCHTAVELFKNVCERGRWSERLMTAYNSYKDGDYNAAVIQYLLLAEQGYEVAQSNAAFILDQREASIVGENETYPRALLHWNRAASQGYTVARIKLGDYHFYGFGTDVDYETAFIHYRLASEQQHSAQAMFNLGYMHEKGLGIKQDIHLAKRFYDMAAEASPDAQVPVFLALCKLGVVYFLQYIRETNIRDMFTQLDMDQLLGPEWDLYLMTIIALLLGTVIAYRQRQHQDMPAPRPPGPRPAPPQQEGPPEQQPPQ
SEL1L F668A-FLAG (Q9UBV2, form named): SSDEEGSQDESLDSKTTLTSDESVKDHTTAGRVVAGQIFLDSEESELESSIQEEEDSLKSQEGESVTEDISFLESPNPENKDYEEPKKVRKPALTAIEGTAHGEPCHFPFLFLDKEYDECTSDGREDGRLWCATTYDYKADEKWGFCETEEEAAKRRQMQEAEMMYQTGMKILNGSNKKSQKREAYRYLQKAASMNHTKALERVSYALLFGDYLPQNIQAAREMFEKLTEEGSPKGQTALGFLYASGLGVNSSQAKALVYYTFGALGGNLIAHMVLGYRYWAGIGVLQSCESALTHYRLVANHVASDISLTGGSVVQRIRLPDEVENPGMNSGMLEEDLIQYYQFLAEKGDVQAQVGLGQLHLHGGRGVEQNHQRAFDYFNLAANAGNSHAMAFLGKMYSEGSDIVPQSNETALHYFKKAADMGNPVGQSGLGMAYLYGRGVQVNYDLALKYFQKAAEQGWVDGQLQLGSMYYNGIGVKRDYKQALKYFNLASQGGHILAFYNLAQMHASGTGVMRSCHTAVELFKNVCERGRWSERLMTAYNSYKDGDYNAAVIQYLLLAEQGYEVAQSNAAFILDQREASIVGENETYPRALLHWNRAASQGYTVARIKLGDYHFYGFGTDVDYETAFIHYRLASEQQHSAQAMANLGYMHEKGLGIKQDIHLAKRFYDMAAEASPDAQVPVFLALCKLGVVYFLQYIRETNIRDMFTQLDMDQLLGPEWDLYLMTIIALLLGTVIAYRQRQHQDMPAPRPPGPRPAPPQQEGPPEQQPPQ
SEL1L F668C-FLAG (Q9UBV2, form named): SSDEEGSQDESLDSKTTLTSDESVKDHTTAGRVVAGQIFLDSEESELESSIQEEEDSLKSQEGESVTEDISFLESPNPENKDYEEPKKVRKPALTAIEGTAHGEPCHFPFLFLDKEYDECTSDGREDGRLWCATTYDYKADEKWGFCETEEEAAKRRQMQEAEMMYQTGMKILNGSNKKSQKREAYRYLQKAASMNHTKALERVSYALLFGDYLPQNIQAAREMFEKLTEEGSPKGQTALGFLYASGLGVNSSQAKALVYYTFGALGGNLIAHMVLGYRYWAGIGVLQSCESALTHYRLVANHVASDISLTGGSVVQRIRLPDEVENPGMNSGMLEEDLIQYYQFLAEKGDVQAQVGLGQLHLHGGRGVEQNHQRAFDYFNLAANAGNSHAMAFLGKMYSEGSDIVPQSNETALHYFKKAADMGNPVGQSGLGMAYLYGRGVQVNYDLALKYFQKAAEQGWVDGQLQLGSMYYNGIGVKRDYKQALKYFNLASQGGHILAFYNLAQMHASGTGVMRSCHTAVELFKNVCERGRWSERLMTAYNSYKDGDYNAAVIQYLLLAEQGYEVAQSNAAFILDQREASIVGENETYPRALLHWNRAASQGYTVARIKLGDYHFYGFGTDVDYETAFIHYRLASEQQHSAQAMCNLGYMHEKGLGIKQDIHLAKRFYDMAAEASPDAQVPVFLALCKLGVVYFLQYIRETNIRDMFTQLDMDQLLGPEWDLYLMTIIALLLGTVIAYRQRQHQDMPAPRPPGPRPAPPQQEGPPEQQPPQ
SEL1L F668D-FLAG (Q9UBV2, form named): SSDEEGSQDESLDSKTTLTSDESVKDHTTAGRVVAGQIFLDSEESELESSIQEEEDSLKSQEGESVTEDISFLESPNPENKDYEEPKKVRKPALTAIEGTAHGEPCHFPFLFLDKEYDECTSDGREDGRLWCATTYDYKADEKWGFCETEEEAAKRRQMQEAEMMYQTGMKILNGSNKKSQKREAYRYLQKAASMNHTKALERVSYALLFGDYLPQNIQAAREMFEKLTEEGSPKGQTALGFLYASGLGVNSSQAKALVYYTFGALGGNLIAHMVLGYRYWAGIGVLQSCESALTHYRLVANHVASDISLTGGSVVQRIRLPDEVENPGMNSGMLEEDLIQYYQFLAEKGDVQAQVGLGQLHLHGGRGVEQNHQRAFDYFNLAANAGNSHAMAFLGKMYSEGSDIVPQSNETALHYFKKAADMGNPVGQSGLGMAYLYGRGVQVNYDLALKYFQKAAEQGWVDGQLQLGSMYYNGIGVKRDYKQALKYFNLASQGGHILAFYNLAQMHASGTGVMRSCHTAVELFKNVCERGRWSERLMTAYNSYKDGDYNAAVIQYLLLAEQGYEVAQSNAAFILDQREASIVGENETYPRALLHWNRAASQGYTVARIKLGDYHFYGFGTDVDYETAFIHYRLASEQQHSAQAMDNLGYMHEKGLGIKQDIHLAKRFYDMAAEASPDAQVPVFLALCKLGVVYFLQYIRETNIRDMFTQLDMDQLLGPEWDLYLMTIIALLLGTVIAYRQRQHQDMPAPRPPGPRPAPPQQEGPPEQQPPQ
SEL1L F668H-FLAG (Q9UBV2, form named): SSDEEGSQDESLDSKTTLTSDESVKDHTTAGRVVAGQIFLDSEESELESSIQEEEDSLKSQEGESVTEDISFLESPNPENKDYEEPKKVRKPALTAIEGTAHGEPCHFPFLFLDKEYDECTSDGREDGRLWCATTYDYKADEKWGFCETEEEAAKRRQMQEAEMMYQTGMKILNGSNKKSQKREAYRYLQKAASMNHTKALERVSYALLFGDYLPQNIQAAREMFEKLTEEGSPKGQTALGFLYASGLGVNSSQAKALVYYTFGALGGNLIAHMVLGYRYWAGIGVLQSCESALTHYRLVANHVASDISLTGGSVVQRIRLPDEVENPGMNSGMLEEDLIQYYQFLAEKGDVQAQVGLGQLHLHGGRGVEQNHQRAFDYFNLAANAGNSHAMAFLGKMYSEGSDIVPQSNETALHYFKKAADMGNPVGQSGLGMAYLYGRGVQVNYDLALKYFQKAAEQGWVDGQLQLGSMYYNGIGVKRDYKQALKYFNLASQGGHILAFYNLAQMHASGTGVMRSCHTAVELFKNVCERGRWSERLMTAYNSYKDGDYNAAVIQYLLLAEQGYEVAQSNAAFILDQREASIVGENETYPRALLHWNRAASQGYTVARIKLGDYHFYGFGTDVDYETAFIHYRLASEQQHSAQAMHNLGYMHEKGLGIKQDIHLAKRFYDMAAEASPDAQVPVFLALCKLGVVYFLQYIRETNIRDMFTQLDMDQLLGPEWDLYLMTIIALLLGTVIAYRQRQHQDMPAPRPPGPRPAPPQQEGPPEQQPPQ
SEL1L F668K-FLAG (Q9UBV2, form named): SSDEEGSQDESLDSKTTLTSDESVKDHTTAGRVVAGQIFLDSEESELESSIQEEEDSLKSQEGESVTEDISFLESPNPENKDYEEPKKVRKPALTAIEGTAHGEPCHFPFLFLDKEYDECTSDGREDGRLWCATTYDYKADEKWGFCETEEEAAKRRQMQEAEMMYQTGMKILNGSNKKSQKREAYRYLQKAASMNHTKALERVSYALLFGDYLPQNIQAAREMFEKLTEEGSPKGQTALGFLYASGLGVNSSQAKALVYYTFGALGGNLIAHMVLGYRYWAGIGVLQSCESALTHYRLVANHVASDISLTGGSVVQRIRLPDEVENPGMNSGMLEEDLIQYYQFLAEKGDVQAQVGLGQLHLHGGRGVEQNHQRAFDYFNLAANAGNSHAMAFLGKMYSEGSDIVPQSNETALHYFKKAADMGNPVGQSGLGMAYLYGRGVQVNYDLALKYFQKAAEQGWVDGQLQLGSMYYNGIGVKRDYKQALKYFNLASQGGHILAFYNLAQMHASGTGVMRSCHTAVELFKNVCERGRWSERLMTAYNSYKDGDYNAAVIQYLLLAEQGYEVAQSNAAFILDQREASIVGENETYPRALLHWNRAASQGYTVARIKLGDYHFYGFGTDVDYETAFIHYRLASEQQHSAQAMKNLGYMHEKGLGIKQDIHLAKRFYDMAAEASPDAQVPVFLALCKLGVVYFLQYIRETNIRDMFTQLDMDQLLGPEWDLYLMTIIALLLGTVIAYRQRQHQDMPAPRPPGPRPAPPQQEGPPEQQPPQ
SEL1L F668M-FLAG (Q9UBV2, form named): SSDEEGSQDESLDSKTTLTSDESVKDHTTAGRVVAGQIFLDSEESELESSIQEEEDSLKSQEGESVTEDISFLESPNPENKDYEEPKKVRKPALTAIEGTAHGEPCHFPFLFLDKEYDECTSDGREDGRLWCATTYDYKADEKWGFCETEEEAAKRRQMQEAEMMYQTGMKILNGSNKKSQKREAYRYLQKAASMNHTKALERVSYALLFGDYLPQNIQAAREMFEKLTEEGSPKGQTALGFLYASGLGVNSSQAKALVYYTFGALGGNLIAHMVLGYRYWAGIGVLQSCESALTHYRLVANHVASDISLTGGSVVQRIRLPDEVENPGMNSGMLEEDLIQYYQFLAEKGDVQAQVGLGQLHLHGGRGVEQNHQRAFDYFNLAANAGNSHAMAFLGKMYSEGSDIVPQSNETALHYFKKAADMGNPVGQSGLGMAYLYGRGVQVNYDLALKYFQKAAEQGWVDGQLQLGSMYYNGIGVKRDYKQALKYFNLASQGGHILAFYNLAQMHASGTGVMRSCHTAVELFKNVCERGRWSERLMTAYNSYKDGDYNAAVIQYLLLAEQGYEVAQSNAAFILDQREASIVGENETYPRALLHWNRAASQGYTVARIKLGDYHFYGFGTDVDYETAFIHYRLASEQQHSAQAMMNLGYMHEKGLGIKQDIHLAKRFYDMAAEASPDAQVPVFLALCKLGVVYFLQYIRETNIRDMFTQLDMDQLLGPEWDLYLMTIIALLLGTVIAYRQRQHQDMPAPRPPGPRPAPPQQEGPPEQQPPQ

What was measured:
Assay in all cases: co-IP
[1] = molecular target: HRD1 (HMG-CoA reductase degradation 1), endogenous (human (endogenous in HEK293T)) (UniProt Q86TM6)
[2] = molecular target: HRD1 (HMG-CoA reductase degradation 1), endogenous (human (endogenous in HEK293T)) (UniProt Q86TM6); remark: listed apart in the source
[3] = molecular target: HRD1 (HMG-CoA reductase degradation 1), endogenous (human (endogenous in HEK293T)) (UniProt Q86TM6); remark: listed apart in the source
SEL1L F668A-FLAG (human) = SEL1L F668A-FLAG (human) (UniProt Q9UBV2)
SEL1L F668C-FLAG (human) = SEL1L F668C-FLAG (human) (UniProt Q9UBV2)
SEL1L F668D-FLAG (human) = SEL1L F668D-FLAG (human) (UniProt Q9UBV2)
SEL1L F668H-FLAG (human) = SEL1L F668H-FLAG (human) (UniProt Q9UBV2)
SEL1L F668K-FLAG (human) = SEL1L F668K-FLAG (human) (UniProt Q9UBV2)
SEL1L F668M-FLAG (human) = SEL1L F668M-FLAG (human) (UniProt Q9UBV2)
SEL1L F668N-FLAG (human) = SEL1L F668N-FLAG (human) (UniProt Q9UBV2)
SEL1L F668S-FLAG (human) = SEL1L F668S-FLAG (human) (UniProt Q9UBV2)
SEL1L F668T-FLAG (human) = SEL1L F668T-FLAG (human) (UniProt Q9UBV2)
SEL1L F668W-FLAG (human) = SEL1L F668W-FLAG (human) (UniProt Q9UBV2)
SEL1L F668Y-FLAG (human) = SEL1L F668Y-FLAG (human) (UniProt Q9UBV2)
SEL1L S658A-FLAG (human) = SEL1L S658A-FLAG (human) (UniProt Q9UBV2)
SEL1L S658D-FLAG (human) = SEL1L S658D-FLAG (human) (UniProt Q9UBV2)
SEL1L S658K-FLAG (human) = SEL1L S658K-FLAG (human) (UniProt Q9UBV2)
SEL1L S658P-FLAG (human) [4] = molecular target: SEL1L S658P-FLAG (human) (UniProt Q9UBV2)
[5] = molecular target: SEL1L S658P/F668A-FLAG (human) (UniProt Q9UBV2)
[6] = molecular target: SEL1L S658P/F668C-FLAG (human) (UniProt Q9UBV2)
[7] = molecular target: SEL1L S658P/F668D-FLAG (human) (UniProt Q9UBV2)
[8] = molecular target: SEL1L S658P/F668H-FLAG (human) (UniProt Q9UBV2)
[9] = molecular target: SEL1L S658P/F668K-FLAG (human) (UniProt Q9UBV2)
[10] = molecular target: SEL1L S658P/F668M-FLAG (human) (UniProt Q9UBV2)
[11] = molecular target: SEL1L S658P/F668N-FLAG (human) (UniProt Q9UBV2)
[12] = molecular target: SEL1L S658P/F668S-FLAG (human) (UniProt Q9UBV2)
[13] = molecular target: SEL1L S658P/F668T-FLAG (human) (UniProt Q9UBV2)
[14] = molecular target: SEL1L S658P/F668W-FLAG (human) (UniProt Q9UBV2)
[15] = molecular target: SEL1L S658P/F668Y-FLAG (human) (UniProt Q9UBV2)
SEL1L-FLAG WT (human) [16] = molecular target: SEL1L-FLAG WT (human) (UniProt Q9UBV2)
SEL1L S658P-FLAG (human) [17] = molecular target: SEL1L S658P-FLAG (human) (UniProt Q9UBV2); remark: listed apart in the source
SEL1L-FLAG WT (human) [18] = molecular target: SEL1L-FLAG WT (human) (UniProt Q9UBV2); remark: listed apart in the source

Measured: binding

B1: FAM8A1 (Family with sequence similarity 8 member A1), endogenous (protein, UniProt Q9UBU6 1-413)
chain: MAEGPEEARGHPPGQDDGGGDHEPVPSLRGPPTTAVPCPRDDPQAEPQAPGRPTAPGLAAAAAADKLEPPRELRKRGEAASGSGAELQEQAGCEAPEAAAPRERPARLSAREYSRQVHEWLWQSYCGYLTWHSGLAAFPAYCSPQPSPQSFPSGGAAVPQAAAPPPPQLGYYNPFYFLSPGAAGPDPRTAAGISTPAPVAGLGPRAPHVQASVRATPVTRVGSAAPSRSPSETGRQAGREYVIPSLAHRFMAEMVDFFILFFIKATIVLSIMHLSGIKDISKFAMHYIIEEIDEDTSMEDLQKMMVVALIYRLLVCFYEIICIWGAGGATPGKFLLGLRVVTCDTSVLIAPSRVLVIPSSNVSITTSTIRALIKNFSIASFFPAFITLLFFQHNRTAYDIVAGTIVVKRNGVR
binds: [1] | [2] | [3]

B2: OS9 (Osteosarcoma amplified 9), endogenous (protein, UniProt Q13438 26-667)
chain: GGVGSLNLEELSEMRYGIEILPLPVMGGQSQSSDVVIVSSKYKQRYECRLPAGAIHFQREREEETPAYQGPGIPELLSPMRDAPCLLKTKDWWTYEFCYGRHIQQYHMEDSEIKGEVLYLGYYQSAFDWDDETAKASKQHRLKRYHSQTYGNGSKCDLNGRPREAEVRFLCDEGAGISGDYIDRVDEPLSCSYVLTIRTPRLCPHPLLRPPPSAAPQAILCHPSLQPEEYMAYVQRQADSKQYGDKIIEELQDLGPQVWSETKSGVAPQKMAGASPTKDDSKDSDFWKMLNEPEDQAPGGEEVPAEEQDPSPEAADSASGAPNDFQNNVQVKVIRSPADLIRFIEELKGGTKKGKPNIGQEQPVDDAAEVPQREPEKERGDPERQREMEEEEDEDEDEDEDEDERQLLGEFEKELEGILLPSDRDRLRSEVKAGMERELENIIQETEKELDPDGLKKESERDRAMLALTSTLNKLIKRLEEKQSPELVKKHKKKRVVPKKPPPSPQPTEEDPEHRVRVRVTKLRLGGPNQDLTVLEMKRENPQLKQIEGLVKELLEREGLTAAGKIEIKIVRPWAEGTEEGARWLTDEDTRNLKEIFFNILVPGAEEAQKERQRQKELESNYRRVWGSPGGEGTGDLDEFDF
binds: SEL1L F668A-FLAG (human) | SEL1L F668C-FLAG (human) | SEL1L F668D-FLAG (human) | SEL1L F668H-FLAG (human) | SEL1L F668K-FLAG (human) | SEL1L F668M-FLAG (human) | SEL1L F668N-FLAG (human) | SEL1L F668S-FLAG (human) | SEL1L F668T-FLAG (human) | SEL1L F668W-FLAG (human) | SEL1L F668Y-FLAG (human) | SEL1L S658A-FLAG (human) | SEL1L S658D-FLAG (human) | SEL1L S658K-FLAG (human) | SEL1L S658P-FLAG (human) [4] | [5] | [6] | [7] | [8] | [9] | [10] | [11] | [12] | [13] | [14] | [15] | SEL1L-FLAG WT (human) [16] | SEL1L S658P-FLAG (human) [17] | SEL1L-FLAG WT (human) [18]

B3: DERL2, endogenous (protein, UniProt Q9GZP9 1-239)
chain: MAYQSLRLEYLQIPPVSRAYTTACVLTTAAVQLELITPFQLYFNPELIFKHFQIWRLITNFLFFGPVGFNFLFNMIFLYRYCRMLEEGSFRGRTADFVFMFLFGGFLMTLFGLFVSLVFLGQAFTIMLVYVWSRRNPYVRMNFFGLLNFQAPFLPWVLMGFSLLLGNSIIVDLLGIAVGHIYFFLEDVFPNQPGGIRILKTPSILKAIFDTPDEDPNYNPLPEERPGGFAWGEGQRLGG
binds: SEL1L S658P-FLAG (human) [4] | SEL1L-FLAG WT (human) [16]

B4: UBE2J1, endogenous (enzyme, UniProt Q9Y385 1-318)
chain: METRYNLKSPAVKRLMKEAAELKDPTDHYHAQPLEDNLFEWHFTVRGPPDSDFDGGVYHGRIVLPPEYPMKPPSIILLTANGRFEVGKKICLSISGHHPETWQPSWSIRTALLAIIGFMPTKGEGAIGSLDYTPEERRALAKKSQDFCCEGCGSAMKDVLLPLKSGSDSSQADQEAKELARQISFKAEVNSSGKTISESDLNHSFSLTDLQDDIPTTFQGATASTSYGLQNSSAASFHQPTQPVAKNTSMSPRQRRAQQQSQRRLSTSPDVIQGHQPRDNHTDHGGSAVLIVILTLALAALIFRRIYLANEYIFDFEL
binds: SEL1L S658P-FLAG (human) [4] | SEL1L-FLAG WT (human) [16]
